The list shows a part of the results, in another mix than the full data. The list shows a part of the results.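 The calls were made as follows: active = MAPPIT score above the 99th percentile of random reference set scores in the same batch; inactive = at or below it.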
Tests used:
Assay in all cases: MAPPIT interaction score (arbitrary units); higher = stronger binary interaction signal, active = hit call of the paper
CG15771 = settings: MAPPIT configuration: N-N; pair source set: screen_1
Procedure: (§1)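 MAPPIT in HEK293T cells: Drosophila bait and prey ORFs (from the FlyBi ORF collection) were co-transfected in quadruplicate, with two wells stimulated by erythropoietin. Interaction-dependent JAK-STAT activation was read out with a STAT-responsive firefly luciferase reporter. Positive calls use the 99th percentile of random reference set (RRS) scores within each batch […]. Batches Dvs01 and Dvs02 used the N-N configuration and Dvs04 the N-C configuration. Pairs come from FlyBi screens, CuraGen, DPiM, Finley Y2H, Lit-BM-16, Lit-BS-16 and RRS.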

CG34453 = settings: MAPPIT configuration: N-C; pair source set: screen_4
Procedure: as §1

D = settings: MAPPIT configuration: N-N; pair source set: screen_2
Procedure: as §1

hbn = settings: MAPPIT configuration: N-N; pair source set: screen_2
Procedure: as §1

Dyb = settings: MAPPIT configuration: N-N; pair source set: screen_2
Procedure: as §1
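Also: HEK293T cells with Epo stimulation, STAT-responsive firefly luciferase reporter, fold induction versus unstimulated cells divided by the larger fold induction of two negative controls lacking either bait or prey.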

Row | Binder | MAPPIT interaction score (CG15771) | MAPPIT interaction score (CG34453) | MAPPIT interaction score (D) | MAPPIT interaction score (hbn) | MAPPIT interaction score (Dyb)
1 | D (protein) MATLSTHPNYGFHLGQAQGLEDYAPQSQLQLSPGMDMDIKRVLHYSQSLAAMGGSPNGPAGQGVNGSSGMGHHMSSHMTPHHMHQAVSAQQTLSPNSSIGSAGSLGSQSSLGSNGSGLNSSSGHQSAGMHSLATSPGQEGHIKRPMNAFMVWSRLQRRQIAKDNPKMHNSEISKRLGAEWKLLAESEKRPFIDEAKRLRALHMKEHPDYKYRPRRKPKNPLTAGPQGGLQMQAGGMGQQKLGAGPGAGAGGYNPFHQLPPYFAPSHHLDQGYPVPYFGGFDPLALSKLHQSQAAAAAAVNNQGQQQGQAPPQLPPTSLSSFYSGIYSGISAPSLYAAHSANAAGLYPSSSTSSPGSSPGTITPNGMDGSMDSALRRPVPVLY | inactive: 1.69 | inactive: 2.42 | inactive: -1.14 | inactive: -0.946 | 
2 | ey (protein) MRNLPCLGTAGGSGLGGIAGKPSPTMEAVEASTASHRHSTSSYFATTYYHLTDDECHSGVNQLGGVFVGGRPLPDSTRQKIVELAHSGARPCDISRILQVSNGCVSKILGRYYETGSIRPRAIGGSKPRVATAEVVSKISQYKRECPSIFAWEIRDRLLQENVCTNDNIPSVSSINRVLRNLAAQKEQQSTGSGSSSTSAGNSISAKVSVSIGGNVSNVASGSRGTLSSSTDLMQTATPLNSSESGGASNSGEGSEQEAIYEKLRLLNTQHAAGPGPLEPARAAPLVGQSPNHLGTRSSHPQLVHGNHQALQQHQQQSWPPRHYSGSWYPTSLSEIPISSAPNIASVTAYASGPSLAHSLSPPNDIESLASIGHQRNCPVATEDIHLKKELDGHQSDETGSGEGENSNGGASNIGNTEDDQARLILKRKLQRNRTSFTNDQIDSLEKEFERTHYPDVFARERLAGKIGLPEARIQVWFSNRRAKWRREEKLRNQRRTPNSTGASATSSSTSATASLTDSPNSLSACSSLLSGSAGGPSVSTINGLSSPSTLSTNVNAPTLGAGIDSSESPTPIPHIRPSCTSDNDNGRQSEDCRRVCSPCPLGVGGHQNTHHIQSNGHAQGHALVPAISPRLNFNSGSFGAMYSNMHHTALSMSDSYGAVTPIPSFNHSAVGPLAPPSPIPQQGDLTPSSLYPCHMTLRPPPMAPAHHHIVPGDGGRPAGVGLGSGQSANLGASCSGSGYEVLSAYALPPPPMASSSAADSSFSAASSASANVTPHHTIAQESCPSPCSSASHFGVAHSSGFSSDPISPAVSSYAHMSYNYASSANTMTPSSASGTSAHVAPGKQQFFASCFYSPWV |  |  |  |  | inactive: -0.142
